The values that follow come from PubChem BioAssay AID445 (National Center for Advancing Translational Sciences (NCATS), 2006).

The nature of this experiment: IkB Signaling. Conditions: ABC-DLBCL IkBa-CBG/CBR dual luciferase ratio (green luciferase fused to IkBa over red control in OCI-Ly3 lymphoma cells), 4 h. The method, boiled down:
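Luminescence ratio of IκBα-fused green versus native red beetle luciferase in OCI-Ly3 cells, 4 h post-doxycycline with compound; red signal alone, scaled from basal (0%) to zero light (-100%), flagged nonspecific or cytotoxic effects.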

[1] abbreviates: measured here: control luc red channel unless noted.

By AC50 is commonly meant the concentration at which the activity in the assay is half-maximal.

The list shows a part of the results. The main result of the screen is listed elsewhere. These columns were measured beside it and carry no call. Compounds called inactive in the main read-out are mostly missing here. The note in brackets gives the kind of curve behind each potency; many fits are weak.

Turning to `Cc1cc(NC(=O)c2noc3c2CCCC3)nn1Cc1ccc(Cl)cc1`, under setting [1], the AC50 is 10 µM [falling, partial curve].

Take `CSCCC(NC(=O)c1cncc(Br)c1)C(=O)O` (stereo not drawn): under setting [1], the AC50 is 20 µM [falling, partial curve]. Still for that read-out and setting: the result for `Cc1ccccc1Cn1c2ccccc2c2cnn(CC(=O)NCc3ccccn3)c(=O)c21` reads 31.6 µM [falling, single point]; that for `O=C(NCCc1ccccc1)C1CCC(CNS(=O)(=O)c2ccc(Cl)cc2)CC1` (stereo not drawn), 20 µM [rising, partial curve, poor fit]. Same read-out and setting: the result for `Cc1ccc(C)c(N2CCN(C(=O)NCc3noc4ccc(C)cc34)CC2)c1` reads 12.6 µM [falling, partial curve]; that for `COc1ccc(-c2nc(N3CCOCC3)nc3n[nH]c(N)c23)cc1`, 39.8 µM [falling, single point]; that for `Cc1nn(-c2ccc(C(=O)O)cc2)c(=O)c2ccccc12`, 15.8 µM [falling, partial curve]. The same measure, in the same setting: to `CCOC(=O)c1ccc(N=c2sc(C(=O)OC)cc(=O)n2CCCN2CCOCC2)cc1` belongs 10 µM [falling, partial curve]; to `COc1ccc2[nH]c3c(c2c1)CCN(C(=O)c1cccc(Cl)c1)C3c1ccc(F)cc1` (stereo not drawn), 39.8 µM [falling, single point].

With `COc1cc2cc(C(=O)Nc3ccccc3)c(N)nc2cc1OC`, the AC50 was 15.8 µM [falling, partial curve] (measured here: IkB-luc green channel) and 25.1 µM [falling, partial curve] (measured here: control luc red channel). `COc1ccc(C(=O)c2oc3ccccc3c2N)cc1`: the AC50 under setting [1] is 0.126 µM [rising, full curve, poor fit]. `COc1ccc(-c2cn3cccnc3n2)cc1NC(=O)Nc1ccc(Cl)cc1`: the AC50 under setting [1] was 39.8 µM [falling, single point]. Still for that read-out and setting: to `Cn1c(C(=O)NCCc2c[nH]c3ccccc23)cc2sccc21` belongs 31.6 µM [falling, single point]. On the same count and under the same terms, to `O=C(Nc1ccc(S(=O)(=O)Nc2ncccn2)cc1)c1cc(=O)c2ccccc2o1` belongs 3.16 µM [falling, single point]; to `O=C(NCc1ccco1)c1cc2ccccc2o1`, 7.94 µM [falling, full curve]. Still for that read-out and setting: the result for `CCOc1ccc(NC(=O)c2ccc3c(c2)CCN3S(=O)(=O)CC)cc1` reads 10 µM [falling, partial curve]; that for `O=C(CC1C(=O)N(c2ccccc2)C(=O)N1Cc1ccc(F)cc1)Nc1cccc(F)c1` (stereo not drawn), 31.6 µM [falling, single point].

On to `O=C(CSc1nc(=O)n(CCN2CCOCC2)c2c1CCC2)Nc1ccccc1`, for which, under setting [1], the AC50 is 3.98 µM [rising, partial curve, poor fit]. Same read-out and setting: the result for `CN(C)c1ccc(-c2ccc3ncnc(N(C)C)c3c2)cc1` reads 1.26 µM [rising, partial curve] [measured here: IkB-luc green channel]. Same read-out and setting: the result for `Cc1ccc2c(c1)N(C(=O)CCC(=O)NCc1ccccc1Cl)CC(C)O2` (stereo not drawn) reads 15.8 µM [falling, single point]; that for `Cc1ccccc1Nc1nc(-c2cccc(Cl)c2)c2c(n1)-c1ccccc1OC2`, 10 µM [falling, partial curve]. As for `CC(NC(=O)Cn1c(=O)oc2cc(S(=O)(=O)NCc3ccccc3)ccc21)c1ccccc1` (stereo not drawn), the AC50 under setting [1] was 31.6 µM [falling, single point]. The same measure, in the same setting: to `COc1ccc(Nc2nc(N)c3cc(OC)c(OC)cc3n2)cc1` belongs 15.8 µM [falling, partial curve].

As for `C=CCOc1c(Cl)cc(C2NC(=O)NC(C)=C2C(=O)OC)cc1Cl` (stereo not drawn), the AC50 under setting [1] is 20 µM [falling, partial curve]. On the same count and under the same terms, to `COc1ccc(CNC(=O)c2c3c(nc4ccccc24)C(=O)N(C2CCCCC2)C3)cc1` belongs 15.8 µM [falling, partial curve]; to `CCOC(=O)c1oc2ccc(S(=O)(=O)n3nc(-c4ccc(Br)cc4)cc3N)cc2c1C`, 0.158 µM [falling, full curve]. In the case of `COc1cccc(CNC(=O)c2nn(-c3ccc(C)cc3)c(=O)c3c2c2ccccc2n3C)c1`, the AC50 under setting [1] was 12.6 µM [rising, partial curve]. On the same count and under the same terms, to `COc1ccccc1Nc1nn2c(=O)c3ccc(C(=O)N4CCCC(C)C4)cc3nc2s1` (stereo not drawn) belongs 12.6 µM [falling, partial curve]. Still for that read-out and setting: to `COc1ccccc1CNS(=O)(=O)c1ccc2c(c1)NC(=O)CC(=O)N2` belongs 25.1 µM [falling, single point]; to `Cc1ccc(-n2nc(C)c3c(C(=O)NCc4ccccc4)cc(C4CC4)nc32)cc1`, 39.8 µM [falling, single point]; to `COc1ccc(C2CC(=O)N(Cc3cccc(F)c3)c3ccccc3S2)cc1` (stereo not drawn), 39.8 µM [falling, partial curve, poor fit].

For the compound `CCCc1cnc2c(c1SCC(=O)Nc1ccc(C)c(Cl)c1)c(=O)n(C)c(=O)n2C`, the AC50 under setting [1] is 25.1 µM [falling, single point]. Same read-out and setting: to `CCOc1ccccc1NC(=O)c1ccc(F)c(S(=O)(=O)NCc2ccc3c(c2)OCO3)c1` belongs 39.8 µM [falling, single point]; to `Cc1cccc(NC(=O)c2ccccc2Br)n1`, 0.251 µM [falling, full curve, poor fit]. The same measure, in the same setting: to `O=c1cc(-c2ccccc2)nc2nc(-c3ccccc3)[nH]n12` belongs 0.794 µM [falling, full curve]; to `CCOc1ccccc1NC(=O)N1CCc2c(sc(C)c2CC)C1c1ccccc1` (stereo not drawn), 10 µM [falling, full curve, poor fit]; to `Cc1ccc(N2CCN(S(=O)(=O)c3ccc(F)c(C)c3)CC2)c(C)c1`, 7.94 µM [falling, partial curve].

For the compound `COc1ccccc1-c1nnc(SCC(=O)Nc2ccccc2)o1`, the AC50 under setting [1] was 0.158 µM [falling, full curve].

In the case of `Cc1noc(/C=C/c2cccs2)c1S(=O)(=O)N1CCC(C(=O)NCc2ccccc2Cl)CC1`, under setting [1], the AC50 was 0.2 µM [rising, full curve, poor fit]. As for `Cc1ccc(N2C(=O)c3oc4ccccc4c(=O)c3C2c2cccc(O)c2)nc1` (stereo not drawn), the AC50 under setting [1] was 20 µM [falling, partial curve]. On to `Cc1ccc(C)c(NC(=O)CSc2nnc(CCCCCNC(=O)OC(C)(C)C)o2)c1`, for which the AC50 under setting [1] is 7.94 µM [falling, partial curve]. Still for that read-out and setting: to `CCc1ccccc1N1CC(c2nc3ccccc3n2CCCCOc2ccccc2)CC1=O` (stereo not drawn) belongs 7.94 µM [falling, partial curve]. `CC(=O)c1ccc(N2CCN(S(=O)(=O)c3ccc4c(c3)C(C)(C)C(=O)N4)CC2)cc1`: the AC50 under setting [1] was 0.0126 µM [falling, full curve, poor fit]. Consider `Oc1ccccc1-c1nc(/C=C/c2ccc(F)cc2)nn1-c1ccccc1`, for which the AC50 under setting [1] is 1.26 µM [falling, partial curve]. With `COc1cccc(/C=C/C(=O)Nc2ccc3nc(N4CCN(C)CC4)cc(C)c3c2)c1OC`, under setting [1], the AC50 was 31.6 µM [falling, single point].

On to `COC(=O)c1cccc(-n2c(CCC(=O)O)ccc2-c2cccs2)c1`, for which, under setting [1], the AC50 is 12.6 µM [falling, partial curve].

Take `COc1ccc2[nH]c(=O)c(CN(Cc3cccs3)S(=O)(=O)c3cccc4nsnc34)cc2c1`: under setting [1], the half-maximal activity concentration (AC50) is 3.16 µM [falling, partial curve]. Still for that read-out and setting: the result for `O=C(c1cc2ccc3cccnc3c2[nH]1)N1CCN(c2ccccc2)CC1` reads 39.8 µM [falling, single point]; that for `CCOC(=O)Nc1ccc2c(c1)Nc1ccccc1S2`, 12.6 µM [falling, partial curve]. Same read-out and setting: to `COc1ccc(NC(=O)c2cc(-c3ccc(C)o3)nc3ccccc23)cc1OC` belongs 10 µM [falling, partial curve]; to `CCc1ccccc1NC(=O)C1CCCN(C(=O)c2cnn(-c3ccccc3)c2-n2cccc2)C1` (stereo not drawn), 25.1 µM [falling, single point]. On the same count and under the same terms, the result for `c1csc(CN2CCN(Cc3cccs3)C2c2cccs2)c1` reads 25.1 µM [rising, partial curve] [measured here: IkB-luc green channel]. As to `CCOc1ccc(N2CC(NC(=O)c3ccc(S(=O)(=O)N4CCCCC4)cc3)CC2=O)cc1` (stereo not drawn), the AC50 under setting [1] was 6.31 µM [falling, single point].

Regarding `Cc1ccc(NC(=O)CSc2nc3ccccc3nc2N2CCOCC2)cc1`, the AC50 under setting [1] was 39.8 µM [falling, single point]. Consider `Cc1ccc(C(c2nnnn2Cc2cccs2)N2CCN(Cc3ccc4c(c3)OCO4)CC2)cc1` (stereo not drawn), for which the AC50 under setting [1] is 12.6 µM [falling, partial curve].

Regarding `COc1cc(NC(=O)CSc2ncccc2C(=O)OC(C)C)cc(OC)c1`, the AC50 under setting [1] is 0.00631 µM [falling, full curve, poor fit]. Same read-out and setting: the result for `CCN1C(C(=O)c2ccccc2)=C(OC(=O)c2ccccc2OC)c2ccccc2S1(=O)=O` reads 7.94 µM [falling, full curve].

For the compound `CCOc1ccc(-c2nc(CSCC(=O)NCc3ccc(Cl)cc3)c(C)o2)cc1`, the AC50 under setting [1] was 31.6 µM [falling, single point]. On to `CCN(CC)CCNC(=O)c1ccc2c(=O)n3nc(Nc4ccccc4OC)sc3nc2c1`, for which the AC50 under setting [1] was 31.6 µM [falling, partial curve]. As for `CCOC(=O)CSc1nc2c(c(=O)n(Cc3ccccc3Cl)c(=O)n2C)n1C`, the AC50 under setting [1] was 25.1 µM [rising, single point] [measured here: IkB-luc green channel]. The same measure, in the same setting: the result for `CCCn1c(=O)c(C(=O)NCc2ccc(OC)c(OC)c2)c(O)c2ccccc21` reads 39.8 µM [falling, single point]; that for `CC(=O)c1cc2c(cc1N/C(=N/S(=O)(=O)c1ccc(C)cc1)c1ccc(F)cc1)OCO2`, 3.16 µM [rising, partial curve].
